Measurements reported in patent publication US7759459B2, “Fluorescent assays for protein kinases” (Albert Einstein College of Medicine of Yeshiva University, priority 2003, dated 2010).

Tested on: PKC in mitotic HeLa cell lysates
Experiment: PKC activity in mitotic HeLa cell lysates
Type: biochemical
Conditions: 4.5 μM staurosporine; substrate peptide 2

## CN[C@@H]1C[C@H]2O[C@@](C)([C@@H]1OC)n1c3ccccc3c3c4c(c5c6ccccc6n2c5c31)C(=O)NC4 [staurosporine]
  effect of inhibitor on fluorescence increase upon lysate addition: blocks the increase in fluorescence intensity
